These results are taken from PubChem BioAssay AID902 (National Center for Advancing Translational Sciences (NCATS), 2007).

Only a part is listed here, and it is no random draw. Records with an inconclusive call do not appear. Where a call stands in place of a potency, no number is given. Calls of active or inactive are those of the source. The call rests on the fitted dose curve; in most records, active means well fitted cell-killing curve with a large enough effect; inconclusive means small, poorly fitted or top-dose-only effect; inactive means no such curve, though single readings can be large or run the other way.
Potency means the concentration at half of the fitted maximal effect.

The assay can be described thus: qHTS Screen for Compounds that Selectively Target Cancer Cells with p53 Mutations: Cytotoxicity of p53ts Cells at the Nonpermissive Temperature. Further: nearly all actives have a fitted effect of over 55% in size. Conditions: H1299-p53A138V viability at 39C, ATP luminescence, 24 h; series mostly up to 46.1 µM. From the text: NIH Chemical Genomics Center [NCGC] NIH Molecular Libraries Screening Centers Network [MLSCN] MLSCN Grant: 1 X01 MH079844-01 Assay Submitter (PI): Dr. SUN, YI, University of Michigan NCGC Assay Overview: Synthetic Lethal Screen for Compounds to Kill Cancer Cells with p53 Mutation. Tumor suppressor gene p53 serves as a major cellular barrier against tumorigenesis. […] The goal of this screening is to identify small molecule probes that selectively kill cancer cells with mutations in p53. This screening was carried out using two lines of H1299 lung cancer cells. The H1299-p53 A138V line express a temperature sensitive p53 mutant (p53ts) in which the mutant p53 protein (A138V) is in the mutant confirmation when grown at 39C (the nonpermissive temperature) and in the wild type conformation when grown at 32C (the permissive temperature). A H1299-neo line (p53 null) grown at both 39C and 32C were used as counter-screens to filter out false positive associated with temperature shifting. The small molecular compounds that selectively target mutant p53-containing cancer cells were selected as candidate probes for further study. A cytotoxicity assay based on the measurement of ATP contents in cells was used in this screen. Concentration-responses of all the compounds in the library collection were determined in qHTS using the cell lines and temperature conditions as above.
NCGC Assay Protocol Summary: Both the H1299-p53A138V and H1299-neo cell lines were provided by Dr.Yi Sun, a PI at the University Michigan. The cells were maintained and cultured at 37C. The resuspended frozen cells were used to plate the cells in the 1536-well assay plates at a density of 600 cells per well in 5 ul medium. The assay plates with the cells were incubated at 37C for 16 to 30 hours before the experiments. The library compounds in DMSO solution were added to the cells in assay plates and incubated 24 hours at 39C (for mutant p53 conformation) or 32C (for normal p53 conformation as control). An ATP_lite assay kit (PerkinElmer) was used to determine the cell viability. Tomaxifen (100uM) was used as the positive control for cell killing. Data were normalized to the controls for basal activity (DMSO only) and 100% killing (100uM tamoxifen). AC50 values were determined from concentration-response data modeled with the standard Hill equation. P53 assay protocol: 1. Reagent; 5 uL H1299-p53A138V or H1299-neo cell cells/well 2. Time; overnight; 37C incubation 3. Compounds; 23 nL; 5.9 nM to 46 uM 4. Controls; 23 nL; Tamoxifen 100 uM 5. Time; 24 hr; 39C incubation 6. Reagent; 3 uL; ATP_Lite reagent 7. Time; 20 min; Room Temperature 8. Detection; Luminescence; Viewlux plate reader Keywords: p53, synthetic lethal, cancer, cell viability, cytotoxicity, H1299 cell line, luminescence, MLSMR, MLSCN, NIH Roadmap, qHTS, NCGC
With `CCOC(=O)c1ccc(NC(=O)CSc2nc3c(c(=O)n2CC)SC(C)C3)cc1` (centres undefined), the Potency result is “inactive”.
`CCn1c(SCc2ccc(F)cc2Cl)nc(=O)c2c(C(=O)OC)cc(C3CC3)nc21`: the Potency was active: 12.6 µM.
On to `Nc1nc2ccc(OC(F)(F)F)cc2s1`, for which the Potency entry is “inactive”.
Consider `Fc1ccc(-n2ncc3c(NCCC4=CCCCC4)ncnc32)cc1`, for which the Potency entry was “inactive”.
